Data as given in patent publication US20240350458A1, “14-3-3 PROTEIN MODULATORS AS ANTITUMOR AGENTS” (priority 2021, published 2024).
At least one read-out could not be matched to a standard name with certainty.

Experiments:
Assay in all cases: MTT assay, ATC cell line, fixed concentrations
Type in all cases: cell-based, human
Details in all cases: 48 h
FRO = system: FRO
Method: (§1) The compounds FC91, SB14, SB17, SB18, SB19, SB20, SB21 and FC85 were employed in a cellular screening at fixed concentration ranging from 20 nM to 20 μM.
(§2) Table 2: Four human thyroid cancer cell lines were incubated with FC91, SB14, SB17, SB18, SB19, SB20A, SB20b, SB21 and FC85 for 48 h at fixed concentration of 20,100 and 20000 nM and then assayed with MTT. Data are reported as % of proliferating cells.

SW1736 = system: SW1736
Method: as §1, §2

8505c = system: 8505c
Method: as §1, §2

Nthory = system: Nthory
Method: as §1, §2

Cc1ccc(S(=O)(=O)Nc2ccc3c(c2)C(=Cc2cccnc2N)C(=O)N3)cc1 [SB20A, N-(3-((2-aminopyridin-3-yl)methylene)-2-oxoindolin-5-yl)-4-methylbenzenesulfonamide]
% of proliferating cells (FRO; 100 nM): 107% | % of proliferating cells (FRO; 20000 nM): 55% | % of proliferating cells (SW1736; SW1736, 20000 nM): 60%

Cc1ccc(S(=O)(=O)Nc2ccc3c(c2)C(=Cc2cccnc2N)C(=O)N3)cc1 [SB20B, N-(3-((2-aminopyridin-3-yl)methylene)-2-oxoindolin-5-yl)-4-methylbenzenesulfonamide]
% of proliferating cells (8505c; 20 nM): 75% | % of proliferating cells (8505c; 100 nM): 101% | % of proliferating cells (8505c; 20000 nM): 24% | % of proliferating cells (FRO; 20 nM): 78% | % of proliferating cells (FRO; 100 nM): 85% | % of proliferating cells (FRO; 20000 nM): 29% | % of proliferating cells (Nthory; 20 nM): 95% | % of proliferating cells (Nthory; 100 nM): 74% | % of proliferating cells (Nthory; 20000 nM): 46% | % of proliferating cells (SW1736; SW1736, 20 nM): 88% | % of proliferating cells (SW1736; SW1736, 100 nM): 102% | % of proliferating cells (SW1736; SW1736, 20000 nM): 25%
